Measured values: publication PMC3173608, “Atomic Resolution Insights into Curli Fiber Biogenesis” (Structure(London, England:1993), 2011)
Results are given in words; binding and its absence hold for the method and conditions named. In cells and extracts the contact can be indirect. Some entries that bind do so weakly or less than the wild type.

Molecular target: CsgG (in vivo, in E. coli cells) (E. coli) (UniProt P0AEA2)
Test: cross-linking; disulfide linkages induced in vivo by incubation with diamide; data not shown

B1: CsgG (in vivo, in E. coli cells) (protein, UniProt P0AEA2 16-277)
chain: CLTAPPKEAARPTLMPRAQSYKDLTHLPAPTGKIFVSVYNIQDETGQFKPYPASNFSTAVPQSATAMLVTALKDSRWFIPLERQGLQNLLNERKIIRAAQENGTVAINNRIPLQSLTAANIMVEGSIIGYESNVKSGGVGARYFGIGADTQYQLDQIAVNLRVVNVSTGEILSSVNTSKTILSYEVQAGVFRFIDYQRLLEGEVGYTSNEPVMLCLMSAIETGVIFLINDGIDRGLWDLQNKAERQNDILVKYRHMSVPPES
binding: binds
